Results as given in patent publication US20200040045.
The exact form of at least one protein or probe is not confirmed. No signal at the amounts used counts as a negative.

Protein sequences, listed by entry. Tags and fused reporters are not part of them. Residues count along the entry.
UniProt Q6VWJ6, 293-573: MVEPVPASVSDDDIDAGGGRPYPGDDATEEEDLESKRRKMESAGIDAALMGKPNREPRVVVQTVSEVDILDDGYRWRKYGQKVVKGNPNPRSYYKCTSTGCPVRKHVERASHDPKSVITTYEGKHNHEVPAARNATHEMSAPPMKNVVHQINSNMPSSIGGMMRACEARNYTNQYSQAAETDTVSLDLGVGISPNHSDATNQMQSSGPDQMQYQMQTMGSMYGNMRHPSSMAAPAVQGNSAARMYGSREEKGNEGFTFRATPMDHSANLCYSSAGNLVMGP

Target: SUSIBA1 (Hordeum vulgare) (UniProt Q6VWJ6)
Experiment: EMSA
Settings: purified recombinant protein, protein details: overexpressed in and purified from E. coli, label: 32P

CTGTAAAAAAAATTTAGCCT / GACATTTTTTTTAAATCGGA [SP8a M]
binding result (A-stretch substitution, variant of 6-SFT SP8a): no binding

TTATTAAAAAAATATATACG / AATAATTTTTTTATATATGC [W-box M]
binding result (A-stretch substitution, variant of 6-SFT W-box): no binding

TTATTTTGACCATATATACG / AATAAAACTGGTATATATGC [6-SFT W-box]
binding result (strong binding to the W-box): binds
